Reference: patent US20240092920A1 (KEYMED BIOSCIENCES, published 2024)
Results are given in words; binding and its absence hold for the method and conditions named. Some entries that bind do so weakly or less than the wild type. Blank lines part the entries; values can stand above or below the binder they belong to.

Chains of the proteins cited; added tags and fusions are not shown. Lines headed by an entry give the natural chain unless they say otherwise; changes in a name come on top. A line that says so, or that is headed by a name, gives the form on record, which may keep a tag or linker. Residues count along the entry.
hIL-4Rα, full length, on stably transfected HEK293 cells (P24394, residues 26-825): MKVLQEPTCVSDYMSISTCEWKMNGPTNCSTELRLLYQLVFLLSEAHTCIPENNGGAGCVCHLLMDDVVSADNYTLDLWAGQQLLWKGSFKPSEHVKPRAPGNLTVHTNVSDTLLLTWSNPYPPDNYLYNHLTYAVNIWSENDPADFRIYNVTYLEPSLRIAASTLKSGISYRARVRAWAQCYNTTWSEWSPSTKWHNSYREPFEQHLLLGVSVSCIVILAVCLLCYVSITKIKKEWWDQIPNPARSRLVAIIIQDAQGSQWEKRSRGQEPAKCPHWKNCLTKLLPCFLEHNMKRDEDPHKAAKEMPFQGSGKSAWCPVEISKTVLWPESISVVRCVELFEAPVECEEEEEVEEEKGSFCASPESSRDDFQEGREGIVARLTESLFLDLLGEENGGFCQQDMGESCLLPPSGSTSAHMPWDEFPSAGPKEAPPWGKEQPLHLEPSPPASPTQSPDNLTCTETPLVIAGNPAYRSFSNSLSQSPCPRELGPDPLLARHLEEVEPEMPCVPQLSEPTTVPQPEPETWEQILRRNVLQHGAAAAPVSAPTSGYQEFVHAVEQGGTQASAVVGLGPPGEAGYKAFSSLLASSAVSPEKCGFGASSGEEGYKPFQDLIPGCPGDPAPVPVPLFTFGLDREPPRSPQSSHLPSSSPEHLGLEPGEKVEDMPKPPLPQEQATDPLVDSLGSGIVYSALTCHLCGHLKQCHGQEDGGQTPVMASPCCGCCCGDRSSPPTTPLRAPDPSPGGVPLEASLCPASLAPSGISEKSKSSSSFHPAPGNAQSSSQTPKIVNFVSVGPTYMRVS
recombinant protein of human IL-4Rα extracellular region (P24394, form named): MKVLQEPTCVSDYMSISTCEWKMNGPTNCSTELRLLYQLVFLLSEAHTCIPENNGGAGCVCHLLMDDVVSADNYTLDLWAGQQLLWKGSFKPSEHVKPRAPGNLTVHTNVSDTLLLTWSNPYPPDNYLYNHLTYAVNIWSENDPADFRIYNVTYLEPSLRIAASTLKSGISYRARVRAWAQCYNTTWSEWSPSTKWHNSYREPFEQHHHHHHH

Legend:
[1] = target: hIL-4Rα, full length, on stably transfected HEK293 cells (human) (UniProt P24394); assay: flow cytometry blocking assay on 293-hIL-4Rα stably transfected cells; blocked ligand: biotin-labeled IL-4 at 0.15 ug/ml, SA-PE
[2] = target: hIL-4Rα, full length, on stably transfected HEK293 cells (human) (UniProt P24394); assay: flow cytometry on 293-hIL-4Rα stably transfected cells, anti-human IgG Fab'2-AF647
[3] = target: hIL-4Rα, full length, on stably transfected HEK293 cells (human) (UniProt P24394); assay: flow cytometry on HEK293-hIL-4Rα stably transfected cells, purified Fab, anti-human IgG Fab'2-AF647
[4] = target: recombinant protein of human IL-4Rα extracellular region (human) (UniProt P24394); assay: BLI (Fortebio), biotin-labeled hIL-4Rα on SA probe, Fab at 100 ug/ml

binding [1]: binds
binding [2]: binds
B1: 1021/1013 (antibody, IgG1, V domains shown)
VH: EVQLVESGGGLVKPGGSLRLSCAASGFTFSRYAMSWVRQAPGKGLEWVSTISSGGSYTNYADSVKGRFTISRDNVKNTLYLQMNSLRAEDTAVYYCARATARATEFAYWGQGTLVTVSS
VL: DIQMTQSPSSLSASVGDRVTITCQASQDISNYLNWYQQKPGKAPKLLIYYTSRLHSGVPSRFSGSGSGTDYTLTISSLQPEDFATYFCQQGNTLPLTFGGGTKVEIK
notes: Humanized candidate antibody; also called 1021/1013-IgG; VH1021 with VL1013

binding [3]: binds
B2: Clone 35A7 (antibody, V domains shown)
VH: QVQLKQSGAELVKPGASVKMSCTASGNIFSGYNMHWIKQTPGQGLEWIGGLHPGNGDTSYNQKFKGKATLTADKSSNTAYMQLSSLTSEDSAVYYCALTTAGRAWFAYWGQGTLVTVSA
VL: DIQMNQSTSSLSASLGDRVTISCRASQDISNYLNWYQQKPDGTIKLLIYYTSRLYSGVPSRFSGSGSGTDYSLTISNLEEEDIATYFCQQGNTIPYTFGGGTKLEIK
notes: Chimeric IgG (section 6)

binding [4]: binds
B3: Clone 2F8 (antibody, V domains shown)
VH: QVQLQQSGTELVKPGASVKMSCKASVNTFTGYNMHWIKQTPGQGLEWIGGLHPGNGDSSYNQKFKGRATLTADKSSNTAYMQLSSLTSEDSAVYYCALTTAGRAWFPYWGQGTLVTVSA
VL: DIQMTQSTSSLSASLGDRVTISCRASQDISNYLNWYQQKPDGTVKLLIYYTSRLHSGVPSRFSGSGSGTDYSLTISNLEQEDIATYFCQQGNTLPWTFGGGTKLEIK
